In the assay the target is T1, human BAFF-R (JST576), full length, on cells (human) (UniProt Q96RJ3).
T1 sequence: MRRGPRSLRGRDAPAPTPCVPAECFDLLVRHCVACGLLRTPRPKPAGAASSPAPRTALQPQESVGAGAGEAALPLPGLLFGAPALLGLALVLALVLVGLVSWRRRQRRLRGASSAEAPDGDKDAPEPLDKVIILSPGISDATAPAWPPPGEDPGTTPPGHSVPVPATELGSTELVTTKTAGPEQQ
In words: FACS on 293EBNA cells co-transfected with pJST576 and GFP, 5 ug/ml, anti-flag M2, anti-mouse IgG-PE.

By UniProt entry, the sequences of proteins in these tests, tags left out. Residues count along the entry.
UniProt Q9WU72, residues 127-309: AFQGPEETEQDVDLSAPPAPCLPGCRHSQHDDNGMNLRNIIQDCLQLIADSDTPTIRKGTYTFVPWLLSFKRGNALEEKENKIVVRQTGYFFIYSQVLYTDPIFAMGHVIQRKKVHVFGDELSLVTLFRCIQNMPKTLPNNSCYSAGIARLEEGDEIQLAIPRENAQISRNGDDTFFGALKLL

Results are given in words; binding and its absence hold for the method and conditions named. Some binding calls cover weakened binding; strength is not graded here.

Consider “recombinant soluble murine flag-BAFF (from UniProt Q9WU72 127-309) (ligand)”, for which the binding entry is “binds”.
